# Results deposited as PubChem BioAssay AID493246 (Drosophila RNAi Screening Center, 2011)
# Assay: 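Genes fly cells need to grow and stay alive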 (primary screen)
# System: Drosophila Kc and S2R+ cells
# Knock-down reagent: long dsRNA against Drosophila genes
# Detection: 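Raw, unnormalised count of remaining cells in each well; per-plate z-scores of cell number underlie the calls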
# Scale: Kc cell number and S2R+ cell number: higher = more cells remaining
# Call rule: 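Counted as a hit if cell number falls by a z-score of at least 3 within its plate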
# The deposit covers about 21,000 reagents; below is a random part of those that have a named target and a result. Of all reagents, 429 (2%) are marked active. 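Values are raw and not normalised between plates; calls rest on per-plate z-scores that were not deposited.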 Entries without a mark were called inactive. Not stated in the record: the amount of reagent, the time to read-out.
gene,DRSC id,"Kc cell number, rep 1","Kc cell number, rep 2","S2R+ cell number, rep 1","S2R+ cell number, rep 2"
mbt (GeneID 32631),DRSC20348,1.59e6,1.57e6,9.80e5,1.02e6
Ptp69D (GeneID 39443),DRSC11258,1.36e6,1.64e6,1.16e6,1.25e6
Dap160 (GeneID 35378),DRSC03313,1.37e6,1.50e6,1.05e6,1.09e6
Ldh (GeneID 45880),DRSC11198,1.36e6,1.32e6,1.24e6,1.26e6
CG13247 (GeneID 40247),DRSC11695,1.39e6,1.54e6,1.23e6,1.32e6
CG17648 (GeneID 33357),DRSC00508,1.65e6,1.55e6,1.17e6,1.43e6
Gapvd1 (GeneID 32070),DRSC19752,1.62e6,1.54e6,1.12e6,1.31e6
Est-P (GeneID 39393),DRSC11163,1.29e6,1.21e6,1.33e6,1.39e6
Es2 (GeneID 31780),DRSC18663,5.72e5,,9.05e5,
CG6041 (GeneID 31527),DRSC18396,1.52e6,1.48e6,1.03e6,1.16e6
salto (GeneID 36332),DRSC06291,1.33e6,1.42e6,1.12e6,1.24e6
CG10984 (GeneID 39446),DRSC09817,1.46e6,1.53e6,1.35e6,1.31e6
Asx (GeneID 36612),DRSC05924,1.36e6,1.46e6,1.04e6,1.11e6
CG13197 (GeneID 36253),DRSC06322,1.75e6,1.92e6,1.43e6,1.51e6
pho (GeneID 43819),DRSC17219,1.59e6,1.68e6,1.05e6,1.17e6
CenG1A (GeneID 34803),DRSC02538,1.57e6,1.59e6,1.21e6,1.35e6
CenG1A (GeneID 34803),DRSC03505,1.51e6,1.57e6,1.23e6,1.36e6
CenG1A (GeneID 34803),DRSC03506,1.48e6,1.54e6,1.22e6,1.42e6
Alg14 (GeneID 32479),DRSC19983,1.50e6,1.52e6,1.08e6,1.15e6
elfless (GeneID 35076),DRSC02451,1.67e6,1.67e6,1.37e6,1.59e6
tadr (GeneID 35370),DRSC03177,1.39e6,1.46e6,1.09e6,9.04e5
CG12698 (GeneID 32570),DRSC19485,1.48e6,1.52e6,1.12e6,1.23e6
velo (GeneID 38748),DRSC08841,8.74e5 (active),9.52e5,7.01e5,8.52e5
velo (GeneID 38748),DRSC09698,9.12e5,1.06e6,1.01e6,9.35e5
CG9010 (GeneID 36904),DRSC07320,1.40e6,1.44e6,1.27e6,1.28e6
trpl (GeneID 36003),DRSC06728,1.96e6,1.94e6,1.48e6,1.72e6
trpl (GeneID 36003),DRSC06729,1.83e6,1.87e6,1.31e6,1.51e6
tank (GeneID 33684),DRSC00461,1.55e6,1.48e6,1.27e6,1.31e6
CNBP (GeneID 37646),DRSC04116,1.61e6,1.73e6,1.32e6,1.51e6
CNBP (GeneID 37646),DRSC04419,1.63e6,1.67e6,1.10e6,1.21e6
mRRF2 (GeneID 42670),DRSC16143,1.68e6,1.78e6,1.03e6,1.16e6
Gs2 (GeneID 32087),DRSC20250,1.56e6,1.50e6,1.07e6,1.16e6
Klp67A (GeneID 39068),DRSC11205,1.76e6,1.81e6,9.19e5,1.12e6
Cul6 (GeneID 39474),DRSC09830,1.28e6,1.32e6,1.33e6,1.08e6
ND-B14.5AL (GeneID 40477),DRSC11795,1.70e6,1.69e6,1.27e6,1.39e6
Tudor-SN (GeneID 38045),DRSC08581,1.52e6,1.55e6,1.21e6,1.29e6
AstA (GeneID 42947),DRSC14634,1.51e6,1.74e6,1.08e6,1.14e6

Next part (3 carried over from the part before).
gene,DRSC id,"Kc cell number, rep 1","Kc cell number, rep 2","S2R+ cell number, rep 1","S2R+ cell number, rep 2"
ND-B14.5AL (GeneID 40477),DRSC11795,1.70e6,1.69e6,1.27e6,1.39e6
Tudor-SN (GeneID 38045),DRSC08581,1.52e6,1.55e6,1.21e6,1.29e6
AstA (GeneID 42947),DRSC14634,1.51e6,1.74e6,1.08e6,1.14e6
RalGPS (GeneID 36881),DRSC06941,1.41e6,1.41e6,1.21e6,1.26e6
ttm50 (GeneID 31266),DRSC18587,5.50e5,,7.98e5,
CG11790 (GeneID 42999),DRSC14390,1.80e6,1.84e6,1.48e6,1.53e6
eloF (GeneID 41211),DRSC15162,1.73e6,1.85e6,1.30e6,1.37e6
CG6683 (GeneID 38970),DRSC10694,1.32e6,1.40e6,1.23e6,1.15e6
CG15459 (GeneID 33036),DRSC20530,1.33e6,1.38e6,9.64e5,1.11e6
CG32066 (GeneID 39206),DRSC10652,1.30e6,1.36e6,1.30e6,1.14e6
CG32066 (GeneID 39206),DRSC10653,1.39e6,1.44e6,1.18e6,1.27e6
CG31997 (GeneID 319064),DRSC17105,1.39e6,1.62e6,1.03e6,1.12e6
Caf1-105 (GeneID 36107),DRSC06209,1.41e6,1.49e6,1.23e6,1.37e6
raskol (GeneID 32754),DRSC19202,1.30e6,1.45e6,1.07e6,1.16e6
raskol (GeneID 32754),DRSC19731,1.48e6,1.51e6,1.07e6,1.13e6
raskol (GeneID 32754),DRSC19964,1.53e6,1.51e6,1.07e6,1.10e6
raskol (GeneID 32754),DRSC19967,7.59e5 (active),8.96e5,4.57e5,5.26e5
CG3817 (GeneID 41805),DRSC15515,1.46e6,1.52e6,1.02e6,1.17e6
CG34331 (GeneID 33011),DRSC20679,1.45e6,1.44e6,1.04e6,1.16e6
Trs23 (GeneID 34197),DRSC03190,1.68e6,1.77e6,1.32e6,1.56e6
Ssdp (GeneID 42177),DRSC16211,1.40e6,1.39e6,9.66e5,1.00e6
Sptr (GeneID 31781),DRSC18719,5.71e5,,8.39e5,
CG7488 (GeneID 41597),DRSC16250,1.26e6,1.16e6,9.57e5,1.00e6
RabX6 (GeneID 38084),DRSC08223,1.32e6,9.21e5,1.32e6,1.29e6
EbpIII (GeneID 49821),DRSC04638,1.49e6,1.53e6,1.24e6,1.34e6
nbs (GeneID 44259),DRSC11373,1.27e6,1.23e6,1.29e6,1.36e6
PK2-R2 (GeneID 41638),DRSC16448,1.26e6,1.36e6,1.07e6,1.20e6
Vps4 (GeneID 32777),DRSC19338,1.29e6,1.39e6,8.94e5,1.01e6
CG32772 (GeneID 31420),DRSC18052,8.52e5 (active),7.01e5,5.48e5,6.31e5
CG32772 (GeneID 31420),DRSC18406,5.67e5,,7.39e5,
CG8547 (GeneID 36586),DRSC07211,1.38e6,1.46e6,1.13e6,1.23e6
ssp5 (GeneID 41465),DRSC14955,1.51e6,1.54e6,1.27e6,1.30e6
CG31689 (GeneID 326154),DRSC00734,1.64e6,1.66e6,1.12e6,1.30e6
Tom40 (GeneID 44978),DRSC18796,1.56e6,1.62e6,9.90e5,1.10e6
arr (GeneID 44279),DRSC07451,1.45e6,1.50e6,1.21e6,1.28e6
Task6 (GeneID 41671),DRSC16530,1.28e6,1.28e6,1.16e6,1.23e6
CG4297 (GeneID 33222),DRSC00651,1.44e6,1.50e6,1.02e6,1.20e6
CG32284 (GeneID 317956),DRSC08025,1.52e6,1.42e6,1.02e6,1.15e6
ND-13A (GeneID 33744),DRSC03110,1.75e6,1.62e6,9.70e5,1.14e6
CG34444 (GeneID 5740745),DRSC06435,1.48e6,1.57e6,1.27e6,1.39e6
Nepl9 (GeneID 35020),DRSC02255,1.57e6,1.55e6,1.28e6,1.39e6
